PubChem BioAssay AID1159584 | Peter MacCallum Cancer Centre – 2016

Test: 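Knock-downs that harm CDH1-null cells more than parental MCF10A cells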 (primary screen)
Cell system: human MCF10A breast epithelial cells, parental and CDH1-null
Reagent: siRNA against human genes
Read-out: 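ATP luminescence (CellTiter-Glo) viability per line relative to mean mock wells over all plates, and the ratio of CDH1-null to parental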
Scale: CDH1-null / parental viability ratio: higher = CDH1-null cells survive relatively better than parental; CDH1-null viability vs mock: higher = more viable CDH1-null cells; parental viability vs mock: higher = more viable parental cells
The whole screen tested about 18,000 reagents; shown is a part drawn at random. The record does not give: the amount of reagent, the time to read-out.

gene	CDH1-null / parental viability ratio	CDH1-null viability vs mock (fraction of mock)	parental viability vs mock (fraction of mock)
ST3GAL2 (ST3 beta-galactoside alpha-2,3-sialyltransferase 2)	0.88	0.84	0.95
AGO4 (argonaute RISC component 4)	1.13	0.79	0.7
RESF1 (retroelement silencing factor 1)	0.95	0.94	0.99
AMY1A (amylase alpha 1A)	0.82	0.79	0.96
AIFM2 (AIF family member 2, ferroptosis suppressor)	0.82	0.49	0.6
IL1B (interleukin 1 beta)	0.85	0.64	0.75
UGT1A10 (UDP glucuronosyltransferase family 1 member A10)	1.1	0.95	0.86
FADS1 (fatty acid desaturase 1)	0.95	0.8	0.84
MRPS5 (mitochondrial ribosomal protein S5)	1.12	1.02	0.91
DDX6 (DEAD-box helicase 6)	1.02	1.04	1.02
DRAXIN (dorsal inhibitory axon guidance protein)	0.91	0.75	0.82
CSGALNACT1 (chondroitin sulfate N-acetylgalactosaminyltransferase 1)	1	0.78	0.78
PDZD8 (PDZ domain containing 8)	1.22	0.84	0.69
EVX2 (even-skipped homeobox 2)	1.05	0.84	0.8
BCDIN3D (BCDIN3 domain containing RNA methyltransferase)	0.86	0.92	1.07
TRIM43B (tripartite motif containing 43B)	0.84	0.86	1.02
OR6X1 (olfactory receptor family 6 subfamily X member 1)	0.95	0.76	0.8
CCDC122 (coiled-coil domain containing 122)	0.89	0.57	0.64
NDRG2 (NDRG family member 2)	1	0.95	0.95
ROR1 (ROR family WNT receptor 1)	1.05	0.88	0.84
NEUROG2 (neurogenin 2)	1.22	1.07	0.88
OR1N2 (olfactory receptor family 1 subfamily N member 2)	1.06	0.72	0.68
ARL14 (ARF like GTPase 14)	1.88	0.45	0.24
REM1 (RRAD and GEM like GTPase 1)	0.86	0.55	0.64
SDK2 (sidekick cell adhesion molecule 2)	1.34	1.02	0.76
SPOP (speckle type BTB/POZ protein)	1.32	0.74	0.56
RSAD1 (radical S-adenosyl methionine domain containing 1)	1.08	0.79	0.73
NME1 (NME/NM23 nucleoside diphosphate kinase 1)	1.05	1.02	0.97
EFCC1 (EF-hand and coiled-coil domain containing 1)	1.07	0.92	0.86
MRRF (mitochondrial ribosome recycling factor)	1.05	0.92	0.88
ATP5MC3 (ATP synthase membrane subunit c locus 3)	0.9	0.81	0.9
KNSTRN (kinetochore localized astrin (SPAG5) binding protein)	1.08	0.91	0.84
ZNF547 (zinc finger protein 547)	0.87	0.48	0.55
GEMIN6 (gem nuclear organelle associated protein 6)	0.93	0.56	0.6
MAGEA4 (MAGE family member A4)	0.94	0.88	0.94
JMJD1C (jumonji domain containing 1C)	0.88	0.79	0.9
SMOC2 (SPARC related modular calcium binding 2)	1	0.48	0.48
RAD9B (RAD9 checkpoint clamp component B)	1.17	0.75	0.64
MTRF1 (mitochondrial translation release factor 1)	0.93	0.91	0.98
NRAS (NRAS proto-oncogene, GTPase)	1.03	0.8	0.78
ILF3 (interleukin enhancer binding factor 3)	1.06	0.87	0.82
CEP44 (centrosomal protein 44)	1.06	1	0.94
PSMB7 (proteasome 20S subunit beta 7)	1.44	0.52	0.36
SERPINA10 (serpin family A member 10)	1.12	0.66	0.59
SULT1E1 (sulfotransferase family 1E member 1)	1.08	0.96	0.89
OR2Z1 (olfactory receptor family 2 subfamily Z member 1)	1.31	0.55	0.42
ARL3 (ARF like GTPase 3)	1.32	1.06	0.8
TMEM69 (transmembrane protein 69)	1.12	0.92	0.82
KIFAP3 (kinesin associated protein 3)	1.14	1.21	1.06
AFG1L (AFG1 like ATPase)	0.75	0.58	0.77
AJAP1 (adherens junctions associated protein 1)	1.2	0.91	0.76
OPLAH (5-oxoprolinase, ATP-hydrolysing)	0.92	0.7	0.76
FAM124A (family with sequence similarity 124 member A)	0.87	0.82	0.94
GPSM1 (G protein signaling modulator 1)	1.38	0.72	0.52
OR4Q3 (olfactory receptor family 4 subfamily Q member 3)	1.31	0.72	0.55
PCDHB11 (protocadherin beta 11)	1.15	0.92	0.8
DAPL1 (death associated protein like 1)	0.94	0.3	0.32
BRSK2 (BR serine/threonine kinase 2)	1.05	0.84	0.8
USP18 (ubiquitin specific peptidase 18)	1.24	0.77	0.62
OIP5 (Opa interacting protein 5)	0.93	0.91	0.98
MBNL2 (muscleblind like splicing regulator 2)	0.87	0.62	0.71
ZFP64 (ZFP64 zinc finger protein)	0.6	0.25	0.42
LCE3A (late cornified envelope 3A)	1.5	0.33	0.22
CFHR3 (complement factor H related 3)	0.9	0.79	0.88
CEMIP2 (cell migration inducing hyaluronidase 2)	1.24	0.84	0.68
PDZD2 (PDZ domain containing 2)	1	0.76	0.76
CT45A5 (cancer/testis antigen family 45 member A5)	1.55	1.02	0.66
TRAM2 (translocation associated membrane protein 2)	0.83	0.5	0.6
FAM218A (family with sequence similarity 218 member A)	1.26	0.93	0.74
HEBP2 (heme binding protein 2)	1.28	1.33	1.04
SPOCD1 (SPOC domain containing 1)	1.17	0.56	0.48
OR11L1 (olfactory receptor family 11 subfamily L member 1)	0.85	0.71	0.84
COBLL1 (cordon-bleu WH2 repeat protein like 1)	1.11	1.02	0.92
FAM110B (family with sequence similarity 110 member B)	0.95	0.83	0.87
RELCH	1.23	0.54	0.44
PCDHB16 (protocadherin beta 16)	1.33	1.29	0.97
DCAF16 (DDB1 and CUL4 associated factor 16)	0.97	0.72	0.74
DOCK10 (dedicator of cytokinesis 10)	0.93	0.76	0.82
SH3RF3 (SH3 domain containing ring finger 3)	0.96	0.65	0.68
DTWD2 (DTW motif tRNA-uridine aminocarboxypropyltransferase 2)	1.02	0.92	0.9
RPS6KB1 (ribosomal protein S6 kinase B1)	1.16	0.86	0.74
COL28A1 (collagen type XXVIII alpha 1 chain)	0.79	0.62	0.78
CTDSPL (CTD small phosphatase like)	1.02	0.82	0.8
TAS2R31 (taste 2 receptor member 31)	1.27	1.04	0.82
SLN (sarcolipin)	1.14	1.12	0.98
DPPA4 (developmental pluripotency associated 4)	1.09	1.04	0.95
DIRAS3 (DIRAS family GTPase 3)	1	0.92	0.92
